## Primary screen of a compound library

Measurements from “University of Dundee, Small-Polar-MMV Screening Library” (2021), ChEMBL document CHEMBL3988442.

Mtb glucose medium: 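Phenotypic screen: M. tuberculosis growth, glucose 7H9 medium, 3 days; the read-out is not stated. Compounds at 50 µM. Direction is inferred from retests: higher values go with more growth inhibition. Of about 69,000 compounds tested this way, about 760 (1.1%) reached 50% or more in at least one test.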
Mtb cholesterol medium: 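Phenotypic screen: M. tuberculosis growth, cholesterol and DPPC medium, 4 days; the read-out is not stated. Tested at 50 µM. The record gives no direction; compounds that gave an IC50 in retests scored well above the rest, so higher reads as more growth inhibition. Size under these conditions: about 69,000 compounds, about 370 of them at 50% or above in at least one test.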

Values are the deposited “Percent Effect”, in %.
The record does not define 0% and 100%; most values in the screen are far below 50% and negative numbers occur (in some assays of this library far below -100).
This is an unselected part of the compounds tested.
Two or more numbers in one place are separate tests of the same structure; such repeats can differ widely.

Compound,Mtb glucose medium,Mtb cholesterol medium
Cc1n[nH]cc1CNC(C)c1cccc(N2CCCC2=O)c1.Cl (stereo not given),-8.725 & -20.13,-8.609
CCSc1ccccc1C(=O)N(CCOC)Cc1ccoc1,20.53,-16.07
O=C(O)C(F)(F)F.[H][C@]12CO[C@H](CNC(=O)c3cscn3)[C@@]1([H])CCN(Cc1ccco1)C2,-12.26,8.374
O=S(=O)(NCC(O)c1cccs1)c1ccccc1Cl (stereo not given),-16.83 & 6.425,-9.467
COc1ccc(CN2CCC3(CC2)NC(=O)CC3c2cnn(C)c2)cc1.O=C(O)C(F)(F)F (stereo not given),-25.67,-26.68
Cc1cccc(C(=O)N2CCCN(Cc3cnn(C)c3)CC2)n1,-26.83,3.461
CCn1ccc2ccnc(CC3CN(C(=O)c4cnco4)C3)c21,-14.06,-13.84
Cc1cc(C)n(CC2CN(CCOc3ccccc3F)CCO2)n1 (stereo not given),-4.59,-1.988
COc1ccc(CNC(=O)N2CCOCC2C2CC2)cc1C (stereo not given),12.21,-1.021 & -6.086
CCC1CC(=O)NCc2nc3sc(C)cn3c21 (stereo not given),-23.82,-6.67
Cc1cc(C)c(CNC(=O)N(C)CC2CCCCO2)c(=O)[nH]1 (stereo not given),-10.46,-4.583
CC(C)NC(=O)[C@H]1CN(Cc2ccccc2)C[C@@H]1C(=O)c1ccccc1,10.59,-8.217 & -2.103
O=C(C1CCCOC1)N(CC(F)F)c1cccc(Cl)c1 (stereo not given),14.79 & 15.25,-9.285
CC(C)c1nc(CCN(C)c2nccc(N3CCCC(O)C3)n2)no1 (stereo not given),4.913 & -10.47,-2.6
CCc1nc(CNC2CCCc3c2cnn3CC)cs1 (stereo not given),-4.06,-3.253
OC1CN(Cc2ccccc2)CCN(c2ccncc2)C1 (stereo not given),-16.9,-31.61
O=C(O)C(F)(F)F.O=C(O)C(F)(F)F.[H][C@@]12C[C@@H](Oc3cccc(F)c3)CN1CCN(Cc1ccccn1)C2,25.12,15.74
CNC(=O)CN1CCOC(c2ccccc2C(F)(F)F)C1 (stereo not given),-14.93,-16.66
O=C(O)C(F)(F)F.O=C(O)C(F)(F)F.[H][C@@]12COC[C@@H](CC(=O)NCc3cccnc3)[C@]1([H])CN(CCOC)C2,30.89,13.91
Cn1ncc2c(N3CC[C@H](O)C3)nc(-c3ccncc3)nc21,-11.51,-47.5
O=C(NCCN1CCCCC1)c1ccn(-c2ccccc2)n1,-1.392,-19.09
CC(NC1(CNC(=O)CC2CCCC2)CCOCC1)c1ccccc1 (stereo not given),-7.137 & 7.67,-1.233
CNc1nc(N2CCN(Cc3ccsc3)C(CCO)C2)nc2c1CCC2 (stereo not given),27.39 & 11.06,11.33
CCCC(O)CN1CC(C)(C)CN(C(=O)CCc2ccccc2)CC1=O (stereo not given),-30.82,-36.83
Cc1nc(Nc2nnc(C)s2)cc(C2CCCN2c2ccncn2)n1 (stereo not given),1.229,-9.524
CN1CCN(c2ccncc2S(=O)(=O)N2CCCCC2)CC1,9.29,21.84
CNC(=O)[C@@H]1C[C@@H](N)CN1C(=O)CCSCc1ccc(F)cc1,11.66,-30.51
NS(=O)(=O)CCN1CCOC(c2ccsc2)C1 (stereo not given),-1.056 & -0.1295,-3.763
Cc1nc2cc(O)nn2c(C)c1CCC(=O)N(C)CCC(C)C,0.7166,19.27
CN1CCN(CC2CC2)C(=O)c2cnc(N3CC[C@@H](O)C3)nc21,-26.2,-36.81
CCOC(=O)C1(CCOC)CCCN(Cc2nccn2CC)C1 (stereo not given),2.062,4.272
Cc1cc(C)cc(N2CCN(Cc3cccc(CCN)c3)CC2=O)c1,-14.35,-8.013
OCCN1CCCC(c2cccc(-c3ccccc3F)n2)C1 (stereo not given),3.849,5.741 & 1.235
O=C(O)[C@H]1C[C@@H](C(=O)NCc2ccncc2)CN(Cc2ccccc2)C1,18.4,-2.159
Cc1nn(C(C)C)c(C)c1NC(=O)c1ccc(F)cc1,7.549,-17.86 & 4.559
[H][C@@]12CCN(c3ncccn3)C[C@]1([H])[C@@H](CN(C)Cc1cccnc1)OC2,-4.017,-16.87
CN1CCOC(CNCc2coc(-c3cccc(F)c3)n2)C1 (stereo not given),-9.82 & 10.42,8.704
O=C(CCCOc1ccccc1Cl)N1CCCC(n2cncn2)C1 (stereo not given),4.901,20.46
Cc1cccc2nc(CNCc3cccc4c3OCCCO4)cn12,-1.933 & 14.13,0.9863
Cc1cccnc1NC(=O)C1CCN(C(C)C(=O)NC(C)(C)C)CC1 (stereo not given),1.833,-19.82
CCn1c(-c2ccccc2)nn(CC(=O)NCCc2ccc(C)s2)c1=O,-47.52,-2.345 & -11.42

Some entries from above, unchanged:

Compound	Mtb glucose medium	Mtb cholesterol medium
COc1ccc(CNC(=O)N2CCOCC2C2CC2)cc1C (stereo not given)	12.21	-1.021 & -6.086
O=C(O)C(F)(F)F.[H][C@]12CO[C@H](CNC(=O)c3cscn3)[C@@]1([H])CCN(Cc1ccco1)C2	-12.26	8.374
CC(C)NC(=O)[C@H]1CN(Cc2ccccc2)C[C@@H]1C(=O)c1ccccc1	10.59	-8.217 & -2.103
OCCN1CCCC(c2cccc(-c3ccccc3F)n2)C1 (stereo not given)	3.849	5.741 & 1.235